Measured values from patent US8362022B2, “Selective subtype alpha 2 adrenergic agents and methods for use thereof” (Allergan, Inc., priority 2008, dated 2013).
Structures were worked out from names or drawings and are uncertain.

By UniProt entry, the sequences of proteins in these tests, tags left out.
UniProt P18825, whole entry: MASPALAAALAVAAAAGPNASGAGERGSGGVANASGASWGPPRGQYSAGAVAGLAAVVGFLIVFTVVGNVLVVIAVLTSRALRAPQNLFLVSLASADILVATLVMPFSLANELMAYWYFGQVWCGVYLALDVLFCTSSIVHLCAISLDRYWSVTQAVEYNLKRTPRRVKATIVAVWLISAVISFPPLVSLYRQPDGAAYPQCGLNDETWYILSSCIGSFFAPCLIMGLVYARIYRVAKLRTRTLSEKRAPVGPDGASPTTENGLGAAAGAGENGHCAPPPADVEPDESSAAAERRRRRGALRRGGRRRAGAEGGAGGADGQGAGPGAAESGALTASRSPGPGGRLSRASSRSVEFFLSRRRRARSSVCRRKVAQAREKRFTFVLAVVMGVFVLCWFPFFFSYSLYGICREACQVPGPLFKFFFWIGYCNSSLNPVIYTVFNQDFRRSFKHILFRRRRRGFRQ
UniProt P35348, whole entry: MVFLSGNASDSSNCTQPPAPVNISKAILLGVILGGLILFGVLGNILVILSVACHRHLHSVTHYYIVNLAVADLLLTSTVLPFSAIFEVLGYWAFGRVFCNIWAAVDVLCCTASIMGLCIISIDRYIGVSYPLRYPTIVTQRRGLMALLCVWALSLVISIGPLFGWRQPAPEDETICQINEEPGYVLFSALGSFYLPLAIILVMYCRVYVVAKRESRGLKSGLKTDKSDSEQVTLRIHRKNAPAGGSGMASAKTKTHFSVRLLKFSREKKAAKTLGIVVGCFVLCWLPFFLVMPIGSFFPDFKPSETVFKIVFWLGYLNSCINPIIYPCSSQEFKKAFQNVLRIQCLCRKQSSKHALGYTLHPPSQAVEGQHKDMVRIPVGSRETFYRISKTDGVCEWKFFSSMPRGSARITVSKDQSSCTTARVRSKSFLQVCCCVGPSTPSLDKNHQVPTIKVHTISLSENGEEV
UniProt P18089, whole entry: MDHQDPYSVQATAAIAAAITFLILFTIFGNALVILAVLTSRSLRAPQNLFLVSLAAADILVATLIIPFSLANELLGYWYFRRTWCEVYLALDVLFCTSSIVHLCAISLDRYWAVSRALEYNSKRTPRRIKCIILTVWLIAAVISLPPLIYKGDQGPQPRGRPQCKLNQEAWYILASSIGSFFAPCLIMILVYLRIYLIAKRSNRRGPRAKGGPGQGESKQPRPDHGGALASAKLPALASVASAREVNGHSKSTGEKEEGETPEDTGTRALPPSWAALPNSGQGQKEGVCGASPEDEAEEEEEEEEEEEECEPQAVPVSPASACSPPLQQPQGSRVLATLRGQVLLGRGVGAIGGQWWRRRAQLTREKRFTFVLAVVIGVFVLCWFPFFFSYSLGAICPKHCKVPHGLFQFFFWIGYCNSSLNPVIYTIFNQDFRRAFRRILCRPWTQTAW

Key:
Type in all cases: cell-based
alpha 2C receptor = alpha 2C receptor (Homo sapiens, UniProt P18825); assay: RSAT assay (Receptor Selection and Amplification Technology), Alpha 2C; details: value in parentheses, ratio of maximal effect to that of brimonidine
Alpha 1A = Alpha 1A (Homo sapiens, UniProt P35348); assay: RSAT assay (Receptor Selection and Amplification Technology), Alpha 1A; details: value in parentheses, ratio of maximal effect of drug to maximal effect of standard full agonist
alpha 2B receptor = alpha 2B receptor (Homo sapiens, UniProt P18089); assay: RSAT assay (Receptor Selection and Amplification Technology), Alpha 2B; details: for Intrinsic Activity efficacy Alpha 2B: value in parentheses, ratio of maximal effect to that of brimonidine, Table 1

Row | SMILES | Intrinsic Activity efficacy Alpha 2C (alpha 2C receptor) | Intrinsic Activity efficacy Alpha 1A (Alpha 1A) | Intrinsic Activity efficacy Alpha 2B (alpha 2B receptor) | EC50 (alpha 2B receptor; read-out: potency nM (EC50) Alpha 2B, transfected NIH-3T3 cells with Gq/i5, Table 1) [nM]
1 | Clc1ccccc1C(Cc1ccncc1)N=C1NCCS1 (stereo not shown) | 1.0 | 1.0 |  | 
2 | Clc1ccccc1C(Cc1ccncc1)N=C1NCCO1 (stereo not shown) |  |  | 0.9 | 
3 | COc1ccccc1C(Cc1ccncc1)N=C1NCCS1 (stereo not shown) |  |  | 1.0 | 
4 | COc1ccccc1C(Cc1cccnc1)N=C1NCCN1 (stereo not shown) |  | 0.92 | 0.67 | 10
